These are yes or no findings as the source states them, for the method shown. Binding seen in cells or lysates may run through a third protein. Some entries that bind do so weakly or less than the wild type. Values belong to the binder of their own block, whether it stands above or below them.
How the values were obtained:
[1] = target: STING (human) (UniProt Q86WV6); assay: co-IP; transfected cells with a third protein or fragment overexpressed as competitor (Fig. S4)
[2] = target: STING (human) (UniProt Q86WV6); assay: co-IP; transiently transfected HEK293T cells (HEK293 with or without cGAMP for 4 h in Fig. 5c; cells of Fig. S4 not shown); NP-40 lysis buffer, 4 °C for 3 h with antibody and Protein-G Sepharose, washes with 500 mM NaCl
[3] = target: STING V155M (human) (UniProt Q86WV6); assay: as above
[4] = target: STING N154S (human) (UniProt Q86WV6); assay: as above
[5] = target: T1, interferon regulatory factor 8 (IRF8) (human) (UniProt Q02556); assay: co-IP; transfected cells with a third protein or fragment overexpressed as competitor (Fig. S4)
T1 sequence: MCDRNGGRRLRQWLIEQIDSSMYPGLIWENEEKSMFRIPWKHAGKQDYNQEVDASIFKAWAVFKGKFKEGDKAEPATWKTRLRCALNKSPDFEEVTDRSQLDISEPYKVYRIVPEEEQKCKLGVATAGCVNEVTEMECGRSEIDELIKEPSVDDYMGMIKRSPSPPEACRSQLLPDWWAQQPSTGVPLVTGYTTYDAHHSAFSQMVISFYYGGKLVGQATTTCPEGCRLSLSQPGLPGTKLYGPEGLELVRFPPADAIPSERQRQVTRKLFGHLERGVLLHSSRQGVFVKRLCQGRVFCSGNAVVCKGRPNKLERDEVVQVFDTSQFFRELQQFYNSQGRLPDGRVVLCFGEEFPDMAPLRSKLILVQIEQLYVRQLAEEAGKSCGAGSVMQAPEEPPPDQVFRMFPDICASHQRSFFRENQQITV

Chains of the proteins cited; added tags and fusions are not shown. Lines headed by an entry give the natural chain unless they say otherwise; changes in a name come on top.
UniProt Q86WV6: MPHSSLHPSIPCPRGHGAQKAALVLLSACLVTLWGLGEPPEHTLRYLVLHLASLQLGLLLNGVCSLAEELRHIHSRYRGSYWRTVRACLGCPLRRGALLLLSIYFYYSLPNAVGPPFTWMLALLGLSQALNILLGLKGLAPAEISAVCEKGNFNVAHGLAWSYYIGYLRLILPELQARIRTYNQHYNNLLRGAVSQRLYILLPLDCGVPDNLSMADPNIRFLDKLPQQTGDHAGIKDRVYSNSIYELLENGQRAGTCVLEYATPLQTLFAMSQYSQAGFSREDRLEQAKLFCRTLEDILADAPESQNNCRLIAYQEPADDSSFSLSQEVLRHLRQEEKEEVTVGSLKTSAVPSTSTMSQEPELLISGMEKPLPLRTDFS

[6] = target: T2, Sting (murine, endogenous) (mouse (endogenous in BMDMs)) (UniProt Q3TBT3); assay: co-IP; endogenous proteins, BMDMs infected with HSV-1 for the indicated times (WT and, in Fig. 4d, Irf8-/- BMDMs); NP-40 lysis buffer, washes with 500 mM NaCl
T2 sequence: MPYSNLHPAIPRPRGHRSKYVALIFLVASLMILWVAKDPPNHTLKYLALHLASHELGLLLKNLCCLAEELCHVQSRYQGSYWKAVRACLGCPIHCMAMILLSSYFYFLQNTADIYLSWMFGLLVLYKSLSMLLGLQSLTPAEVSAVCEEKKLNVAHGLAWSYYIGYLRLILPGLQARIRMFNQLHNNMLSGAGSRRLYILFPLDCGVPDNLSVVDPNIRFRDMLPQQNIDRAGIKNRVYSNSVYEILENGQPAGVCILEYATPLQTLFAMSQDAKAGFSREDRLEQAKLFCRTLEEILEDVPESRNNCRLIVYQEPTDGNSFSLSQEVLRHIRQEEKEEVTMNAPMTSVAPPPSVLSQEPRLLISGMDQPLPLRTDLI

binding [1]: binds
binding [2]: binds
binding [3]: binds
binding [4]: binds
B1: interferon regulatory factor 8 (IRF8) (protein, UniProt Q02556 1-426)
chain: MCDRNGGRRLRQWLIEQIDSSMYPGLIWENEEKSMFRIPWKHAGKQDYNQEVDASIFKAWAVFKGKFKEGDKAEPATWKTRLRCALNKSPDFEEVTDRSQLDISEPYKVYRIVPEEEQKCKLGVATAGCVNEVTEMECGRSEIDELIKEPSVDDYMGMIKRSPSPPEACRSQLLPDWWAQQPSTGVPLVTGYTTYDAHHSAFSQMVISFYYGGKLVGQATTTCPEGCRLSLSQPGLPGTKLYGPEGLELVRFPPADAIPSERQRQVTRKLFGHLERGVLLHSSRQGVFVKRLCQGRVFCSGNAVVCKGRPNKLERDEVVQVFDTSQFFRELQQFYNSQGRLPDGRVVLCFGEEFPDMAPLRSKLILVQIEQLYVRQLAEEAGKSCGAGSVMQAPEEPPPDQVFRMFPDICASHQRSFFRENQQITV

binding [5]: binds
B2: N-terminal DBD (aa1-200) of IRF8 (domain or fragment, UniProt Q02556 1-200)
chain: MCDRNGGRRLRQWLIEQIDSSMYPGLIWENEEKSMFRIPWKHAGKQDYNQEVDASIFKAWAVFKGKFKEGDKAEPATWKTRLRCALNKSPDFEEVTDRSQLDISEPYKVYRIVPEEEQKCKLGVATAGCVNEVTEMECGRSEIDELIKEPSVDDYMGMIKRSPSPPEACRSQLLPDWWAQQPSTGVPLVTGYTTYDAHHS

binding [5]: binds
B3: CTT (aa375-426) of IRF8 (domain or fragment, UniProt Q02556 375-426)
chain: RQLAEEAGKSCGAGSVMQAPEEPPPDQVFRMFPDICASHQRSFFRENQQITV

binding [6]: binds
B4: Irf3 (murine, endogenous) (protein, UniProt P70671 1-419)
chain: METPKPRILPWLVSQLDLGQLEGVAWLDESRTRFRIPWKHGLRQDAQMADFGIFQAWAEASGAYTPGKDKPDVSTWKRNFRSALNRKEVLRLAADNSKDPYDPHKVYEFVTPGARDFVHLGASPDTNGKSSLPHSQENLPKLFDGLILGPLKDEGSSDLAIVSDPSQQLPSPNVNNFLNPAPQENPLKQLLAEEQWEFEVTAFYRGRQVFQQTLFCPGGLRLVGSTADMTLPWQPVTLPDPEGFLTDKLVKEYVGQVLKGLGNGLALWQAGQCLWAQRLGHSHAFWALGEELLPDSGRGPDGEVHKDKDGAVFDLRPFVADLIAFMEGSGHSPRYTLWFCMGEMWPQDQPWVKRLVMVKVVPTCLKELLEMAREGGASSLKTVDLHISNSQPISLTSDQYKAYLQDLVEDMDFQATGNI

From publication PMC9381507
